The supplement of paper PMC10735217
The other results are listed elsewhere or left out. Single values are uncertain here, since repeats match poorly.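 The human kidney-derived cells carry a stably integrated construct of eight TEAD-binding elements driving luciferase, read by luminescence in a drug-repurposing library screen. A compound counts as a hit when its signal is more than five robust Z scores above the plate mean.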

System: HEK293A TEAD-LUC reporter
Experiment: TEAD-luciferase reporter activity (YAP activation), robust Z score vs plate; higher = stronger YAP/TEAD activation
Conditions: 24 h

SMILES | TEAD-luciferase reporter activity (compound concentration: 200 nM) | TEAD-luciferase reporter activity (compound concentration: 2 uM) | TEAD-luciferase reporter activity (compound concentration: 10 uM)
CC(=O)OC[C@H]1O[C@@H](n2cc(F)c(=O)[nH]c2=O)C[C@@H]1OC(C)=O | inactive: -0.85 | inactive: -1.1 | inactive: 0.397
CCn1c(=O)c2c(nc(/C=C/c3ccc(OC)c(OC)c3)n2C)n(CC)c1=O [Istradefylline] | inactive: -1.11 | inactive: -0.0211 | inactive: 1.81
COCC1=C(C(=O)O)N2C(=O)[C@@H](NC(=O)/C(=N\O)c3csc(N)n3)[C@H]2SC1 | inactive: 1.17 | inactive: -0.959 | inactive: 0.3
CCOCOC[C@H](C[C@H](C)C(=O)NO)NC(=O)c1ccc(Oc2ccccc2)cc1 | inactive: 0.809 | inactive: -1.81 | inactive: 0.836
N=C(N)NCCC[C@H](N)C(=O)NCC(=O)N[C@@H](CC(=O)O)C(=O)N[C@@H](CO)C(=O)O | inactive: 1.6 | inactive: 2.5 | inactive: 1.37
C[C@H](NCCc1ccc(O)cc1)[C@H](O)c1ccc(O)cc1 [ritodrine] | inactive: -1.92 | inactive: -1.84 | active: 6.95
COC(=O)Nc1nc2cc(Sc3ccc(NC(=O)[C@H](C)N)cc3)ccc2[nH]1 | inactive: 2.49 | active: 9.79 | inactive: 4.06
NC(=O)C1C(=O)C[C@@H]2C[C@@H]3Cc4cccc(O)c4C(=O)C3C(=O)[C@]2(O)C1=O (stereo not given in full) [incyclinide] | inactive: 0.439 | inactive: 0.163 | inactive: -0.388
COc1cc(N(CCN(C)C)C(N)=O)cc(OC)c1OC | inactive: -1.32 | inactive: 0.969 | inactive: -1.3
NCCCCC(NC(=O)C1(C(=O)NCCc2ccccc2)CCCC1)B(O)O (stereo not given) | inactive: 0.971 | inactive: -1.54 | inactive: 3.79
Clc1ccc2c(c1)NC(N1CCNCC1)=c1ccccc1=N2 | inactive: -2.36 | inactive: 3.19 | inactive: 0.0944
CC(C)=CCN1Cc2cccc3[nH]c(=S)n(c23)C[C@@H]1C | inactive: -0.796 | inactive: -1.24 | inactive: 2.19
CC(C)CCC[C@@H](C)[C@H]1CC[C@H]2[C@@H]3CCC4=C/C(=N\O)CC[C@]4(C)[C@H]3CC[C@]12C [olesoxime] | inactive: -0.507 | inactive: -1.24 | inactive: 1.34
COc1ccc2sc(C(C)(C)C)nc2c1NC(=S)SCCC(=O)O | inactive: 2.1 | inactive: -1.62 | inactive: 0.0607
c1ccc(N2CCN(CCCOc3ccc4c(c3)OCO4)CC2)cc1 | inactive: -0.243 | inactive: -2.34 | inactive: 0.112
CC[C@H](CC[C@@H](C)[C@H]1CCC2[C@@H]3C[C@@H](O)[C@@]4(O)C[C@@H](O)CC[C@]4(C)C3CC[C@@]21C)C(C)C (stereo not given in full) [Lebanus Cedra] | inactive: -0.195 | inactive: 3.37 | inactive: 0.0814

SMILES | TEAD-luciferase reporter activity (compound concentration: 200 nM) | TEAD-luciferase reporter activity (compound concentration: 2 uM) | TEAD-luciferase reporter activity (compound concentration: 10 uM)
O=C(O)c1cccc(-c2nc(N3CCC(OCc4c(-c5c(Cl)cccc5Cl)noc4C4CC4)CC3)no2)c1 [analog of LJN-452] | inactive: -0.0487 | inactive: -0.524 | inactive: 1.26
O=C(O)Cn1nnnc1-c1ccsc1 | inactive: 1.58 | inactive: -0.835 | inactive: 1.37
CN[C@@H]1[C@H](O[C@H]2[C@H](O[C@H]3[C@H](O)[C@@H](O)[C@H](NC(=N)N)[C@@H](O)[C@@H]3NC(=N)N)O[C@@H](C)[C@]2(O)C=O)O[C@@H](CO)[C@H](O)[C@H]1O [Streptomycin] | inactive: -0.0321 |  | inactive: 1.48
CCCNc1nc(C)nc(Nc2c(Cl)cc(C)c3nccnc23)c1C | inactive: 2.34 | inactive: 0.00652 | inactive: -0.853
COCc1cccc(C[C@H](O)/C=C/[C@H]2[C@H](O)CC(=O)[C@@H]2CCSCCCC(=O)OC)c1 | inactive: -1.62 | inactive: 1.05 | inactive: -1.51
CN1CC[C@@H](c2c(O)cc(O)c3c(=O)cc(-c4ccccc4Cl)oc23)[C@@H]1CO [riviciclib] | inactive: -2.64 | inactive: -2.97 | inactive: 0.428
CC(=O)N1CCN(c2ccc(OCC3CO[C@](Cn4ccnc4)(c4ccc(Cl)cc4Cl)O3)cc2)CC1 (stereo not given in full) [Ketoconazole] | inactive: -0.505 | inactive: -1.04 | inactive: -0.332
O=C(c1cc(S(=O)(=O)Nc2ccccc2F)c(F)cc1Cl)N1CCN2CCC[C@@H]2C1 | inactive: -0.298 | inactive: -0.397 | inactive: -1.36
Oc1ccccc1 | inactive: -0.252 | inactive: -0.655 | inactive: -0.802
Cc1nc(C)c(C(=O)Nc2ccc(F)c(-c3nc4ncc(-c5ccccn5)cn4n3)c2)o1 | inactive: -0.656 | inactive: 0.279 | inactive: -1.39
COc1cc2c(NCCCCCO[N+](=O)[O-])ncnc2c(OC)c1OC | inactive: 0.545 | inactive: 0.573 | inactive: 3.65
CC(=O)NCCNC(=N)NN | inactive: -1.07 | inactive: -0.44 | inactive: 0.925
CN[C@H]1C(=O)N[C@@H]2Cc3ccc(cc3)Oc3cc4cc(c3O[C@@H]3O[C@H](C(=O)O)[C@@H](O)[C@H](O)[C@H]3NC(=O)CCCCCCCCC(C)C)Oc3ccc(cc3Cl)[C@@H](O)[C@@H]3NC(=O)[C@H](NC(=O)[C@@H]4NC(=O)[C@@H](NC2=O)c2cc(cc(O)c2Cl)Oc2cc1ccc2O)c1ccc(O)c(c1)-c1c(O[C@H]2O[C@H](CO)[C@@H](O)[C@H](O)[C@@H]2O)cc(O)cc1[C@@H](C(=O)NCCCN(C)C)NC3=O [Dalbavancin] | inactive: -0.745 | inactive: -0.935 | inactive: 0.824
CC12CCC(C(S(=O)(=O)O)C1=O)C2(C)C (stereo not given) | inactive: 0.787 | inactive: -0.465 | inactive: -0.512
COc1ccc2c(c1)CC(CO)O2 (stereo not given) | inactive: -1.97 | inactive: 1.65 | inactive: -0.383
CCN(CC)c1ccc(NC(=O)c2ccccc2N)c(C)c1 | inactive: -1.43 | inactive: -0.677 | inactive: -0.514

Reformatted: 2 of the compounds above
SMILES,TEAD-luciferase reporter activity (compound concentration: 200 nM),TEAD-luciferase reporter activity (compound concentration: 2 uM),TEAD-luciferase reporter activity (compound concentration: 10 uM)
NC(=O)C1C(=O)C[C@@H]2C[C@@H]3Cc4cccc(O)c4C(=O)C3C(=O)[C@]2(O)C1=O (stereo not given in full) [incyclinide],inactive: 0.439,inactive: 0.163,inactive: -0.388
COc1cc(N(CCN(C)C)C(N)=O)cc(OC)c1OC,inactive: -1.32,inactive: 0.969,inactive: -1.3
